# Experimental data published in paper PMC4145329 (Marine Drugs, 2014).
# Experiment: general procedure: solution-phase peptide synthesis; DEPBT/DIEA; cyclisation with DEPBT, HATU, TBTU and DIEA
# Settings: coupling step
row,Substance,step yield
1,N-Boc-Me-D-Leu-D-Leu-Leu-D-Phe-D-Leu-OBn,82.5%
2,N-Boc-Me-D-Leu-Leu-D-Leu-D-Phe-Leu-OBn,81.5%
3,N-Boc-Me-D-Leu-Leu-Leu-D-Phe-Leu-OBn,82.5%
4,N-Boc-Me-Leu-Leu-D-Phe-Me-Leu-Leu-OBn,81.0%
5,N-Boc-Me-Leu-Leu-Phe-Me-Leu-LeuOBn,78.6%

# Same assay, conditions: cyclisation step
row,Substance,cyclisation yield
1,Cyclo(D-Phe-N-Me-Leu-Leu-N-Me-Leu-D-Leu),42.5%
2,Cyclo(Leu-D-N-Me-Phe-D-Leu-D-N-Me-Leu-D-Leu),47.0%
3,Cyclo(Me-D-Leu-Leu-D-Leu-Me-D-Phe-Leu),43.3%
4,Cyclo(Me-D-Leu-Leu-Leu-Me-D-Phe-Leu),44.5%
5,Cyclo(Phe-N-Me-Leu-Leu-N-Me-Leu-Leu),42.0%
